# Measurements reported in the supplement of paper PMC6331611.
# ± gives the standard deviation of the averaged measurements. The full ranking holds about 1,600 compounds; the median of “normalized intracellular growth (luminescence, IQM-normalized) in RAW264.7 macrophages” is about 1, and the lowest 2% start at about 0.43. The list shows a part of the results.
# Tested on: Salmonella enterica serovar Typhimurium SL1344
# Assay: normalized intracellular growth (luminescence, IQM-normalized) in RAW264.7 macrophages (fraction of plate interquartile mean); higher = more bacterial growth (less inhibition)
# Conditions: 10 µM
Structure (SMILES),normalized intracellular growth (time point: T3 (3 h)),normalized intracellular growth (time point: Tfinal (~6 h))
NC[C@H]1O[C@H](O[C@H]2[C@H](O)[C@@H](O[C@H]3O[C@H](CO)[C@@H](O)[C@H](N)[C@H]3O)[C@H](N)C[C@@H]2N)[C@H](N)[C@@H](O)[C@@H]1O,0.81 ± 0.012,0.554 ± 0.025
CC[C@@]1(O)C(=O)OCc2c1cc1n(c2=O)Cc2cc3c(CN(C)C)c(O)ccc3nc2-1,1.01 ± 0.046,0.961 ± 0.047
Nc1nnc(-c2cccc(Cl)c2Cl)c(N)n1,0.926 ± 0.046,1.35 ± 0.061
Nc1nc(=O)[nH]cc1F,1.07 ± 0.058,1.28 ± 0.1
COc1ccc2cc3[n+](cc2c1OC)CCc1cc2c(cc1-3)OCO2,1.01 ± 0.041,0.957 ± 0.13
OCC(S)CS (centres undefined),0.927 ± 0.011,1.03 ± 0.053
O=C(c1cccnc1)N1CCOCC1,1.01 ± 0.09,0.728 ± 0.18
CC(=O)NC[C@H]1CN(c2ccc(N3CCOCC3)c(F)c2)C(=O)O1,1.05 ± 0.013,0.941 ± 0.22
NC(=O)c1cc[n+](CC2=C(C(=O)[O-])N3C(=O)[C@@H](NC(=O)Cc4cccs4)[C@H]3SC2)cc1,0.99 ± 0.024,1.12 ± 0.2
Cc1nccn1CC1CCc2c(c3ccccc3n2C)C1=O (centres undefined),1.09 ± 0.024,1.34 ± 0.07
O=C1C(O)=C(O)C(=O)C(O)=C1O,0.998 ± 0.096,0.863 ± 0.15
COc1ccc2c(c1)c(CC(=O)OCC(=O)O)c(C)n2C(=O)c1ccc(Cl)cc1,0.973 ± 0.022,1.02 ± 0.11
Cc1c2oc3c(C)ccc(C(=O)N[C@@H]4C(=O)N[C@H](C(C)C)C(=O)N5CCC[C@H]5C(=O)N(C)CC(=O)N(C)[C@@H](C(C)C)C(=O)O[C@@H]4C)c3nc-2c(C(=O)N[C@@H]2C(=O)N[C@H](C(C)C)C(=O)N3CCC[C@H]3C(=O)N(C)CC(=O)N(C)[C@@H](C(C)C)C(=O)O[C@@H]2C)c(N)c1=O,0.861 ± 0.057,1.05 ± 0.12
CC1=C(C(=O)O)N2C(=O)[C@@H](NC(=O)[C@H](N)c3ccccc3)[C@H]2SC1,1.017 ± 0.0017,1.07 ± 0.1
CC[C@H](C)C(=O)O[C@H]1C[C@H](O)C=C2C=C[C@H](C)[C@H](CC[C@@H](O)C[C@@H](O)CC(=O)O)[C@H]21,0.968 ± 0.022,0.99 ± 0.025
CC(C)(C)NCC(O)COc1cccc2c1CC(O)C(O)C2 (centres undefined),0.99 ± 0.045,1.16 ± 0.068
CC1=C(C(=O)O)N2C(=O)[C@@H](NC(=O)[C@H](N)c3ccc(O)cc3)[C@H]2SC1,0.982 ± 0.0066,0.831 ± 0.018
CC(C)(Oc1ccc(C2CC2(Cl)Cl)cc1)C(=O)O (centres undefined),0.988 ± 0.028,0.999 ± 0.011
C=C(NC(=O)C(=C)NC(=O)c1csc(C2=N[C@@H]3c4csc(n4)[C@H]4NC(=O)c5csc(n5)[C@H]([C@](C)(O)[C@@H](C)O)NC(=O)[C@H]5CSC(=N5)/C(=C/C)NC(=O)[C@H]([C@@H](C)O)NC(=O)c5csc(n5)[C@]3(CC2)NC(=O)[C@H](C)NC(=O)C(=C)NC(=O)[C@H](C)NC(=O)[C@H]([C@@H](C)CC)N[C@@H]2C=Cc3c([C@H](C)O)cc(nc3[C@H]2O)C(=O)O[C@@H]4C)n1)C(N)=O,0.999 ± 0.025,0.898 ± 0.21
O=C(O)CCc1nc2ccccc2[nH]1,0.989 ± 0.059,1.07 ± 0.042
C[C@@H]1CC2C3C[C@H](F)C4=CC(=O)C=C[C@]4(C)[C@@]3(F)[C@@H](O)C[C@]2(C)[C@@]1(O)C(=O)COC(=O)C(C)(C)C (some centres undefined),0.961 ± 0.055,0.888 ± 0.12
NC(=O)c1cccnc1,1.01 ± 0.037,1.15 ± 0.076
Nc1nccs1,1.03 ± 0.072,0.911 ± 0.12
Cn1c(=O)c2c(ncn2CC(O)CO)n(C)c1=O (centres undefined),1.11 ± 0.091,1.48 ± 0.2
CCCc1nc(C(C)(C)O)c(C(=O)OCc2oc(=O)oc2C)n1Cc1ccc(-c2ccccc2-c2nnn[nH]2)cc1,1 ± 0.026,0.855 ± 0.39
CCCCCCCCCCCCCCCC[N+](C)(C)C,1.11 ± 0.042,0.724 ± 0.038

Structure (SMILES),normalized intracellular growth (time point: T3 (3 h)),normalized intracellular growth (time point: Tfinal (~6 h))
NC(=O)C1(N2CCCCC2)CCN(CCCC(=O)c2ccc(F)cc2)CC1,0.984 ± 0.085,0.965 ± 0.16
CCC(C)(C)c1ccc(CC(C)CN2C[C@@H](C)O[C@@H](C)C2)cc1 (some centres undefined),1.02 ± 0.038,0.929 ± 0.28
CC[C@]12CCCN3CCc4c(n(c5ccccc45)[C@@](O)(C(=O)OC)C1)[C@@H]32,1.04 ± 0.081,0.962 ± 0.17
CCOc1nc2cccc(C(=O)OC(C)OC(=O)OC3CCCCC3)c2n1Cc1ccc(-c2ccccc2-c2nn[nH]n2)cc1 (centres undefined),0.988 ± 0.048,0.592 ± 0.089
Nc1ccc(S(N)(=O)=O)cc1,0.9673 ± 0.006,1.07 ± 0.1
CC(CCc1ccc(O)cc1)NCCc1ccc(O)c(O)c1 (centres undefined),0.914 ± 0.062,1.04 ± 0.14
OC[C@H]1O[C@H](O[C@H]2[C@H](O)[C@@H](O)C(O)O[C@@H]2CO)[C@H](O)[C@@H](O)[C@@H]1O (some centres undefined),0.919 ± 0.086,0.986 ± 0.012
CN(C)CCC(c1ccccc1)c1ccccn1 (centres undefined),0.984 ± 0.04,0.862 ± 0.3
CC(C)CCC[C@@H](C)[C@H]1CC[C@H]2[C@@H]3CC=C4C[C@@H](O)CC[C@]4(C)[C@H]3CC[C@]12C,1.06 ± 0.037,0.958 ± 0.087
NC[C@H]1CC[C@H](C(=O)O)CC1,1 ± 0.042,0.997 ± 0.014
C=CCc1ccccc1OCC(O)CNC(C)C (centres undefined),0.928 ± 0.072,0.993 ± 0.11
CC(=O)OC(C)C[N+](C)(C)C (centres undefined),0.892 ± 0.025,1.04 ± 0.16
CCCCOc1ccc(CC(=O)NO)cc1,1.17 ± 0.03,0.901 ± 0.022
COc1ccc2nc3cc(Cl)ccc3c(Nc3cc(CN4CCCC4)c(O)c(CN4CCCC4)c3)c2n1,0.979 ± 0.051,1.08 ± 0.068
Nc1nc(=O)c2c([nH]1)NCC(CNc1ccc(C(=O)N[C@@H](CCC(=O)O)C(=O)O)cc1)N2C=O (some centres undefined),1.02 ± 0.013,0.923 ± 0.033
CC(=O)c1ccc2c(c1)N(CCCN1CCN(CCO)CC1)c1ccccc1S2,1.04 ± 0.024,0.807 ± 0.11
O=C(O)c1cc(=O)c2c(OCC(O)COc3cccc4oc(C(=O)O)cc(=O)c34)cccc2o1,1.06 ± 0.083,0.884 ± 0.079
CO/N=C1\CN(c2nc3c(cc2F)c(=O)c(C(=O)O)cn3C2CC2)CC1CN (centres undefined),0.967 ± 0.014,1.15 ± 0.048
Clc1ccccc1C(c1ccccc1)(c1ccccc1)n1ccnc1,1.03 ± 0.059,0.887 ± 0.025
NC(=O)NO,0.998 ± 0.06,0.976 ± 0.038
Clc1ccc(COC(Cn2ccnc2)c2ccc(Cl)cc2Cl)cc1 (centres undefined),0.972 ± 0.039,1.11 ± 0.19
Cc1cc(CC(C)CC(C)(C)C)n(O)c(=O)c1 (centres undefined),1.03 ± 0.027,1.24 ± 0.035
CCCC(C(=O)OCCN(CC)CC)(c1ccccc1)c1ccccc1,0.91 ± 0.067,0.988 ± 0.14
CN1CCC[C@H]1c1cccnc1,0.982 ± 0.07,1.07 ± 0.04
O=S(=O)(O)CCSSCCS(=O)(=O)O,1.02 ± 0.061,0.986 ± 0.18
O=P(O)(O)C(O)(Cc1cccnc1)P(=O)(O)O,1.01 ± 0.063,0.987 ± 0.22

# Part of the list above, reformatted.
Structure (SMILES)	normalized intracellular growth (time point: T3 (3 h))	normalized intracellular growth (time point: Tfinal (~6 h))
CCC(C)(C)c1ccc(CC(C)CN2C[C@@H](C)O[C@@H](C)C2)cc1 (some centres undefined)	1.02 ± 0.038	0.929 ± 0.28
CC[C@]12CCCN3CCc4c(n(c5ccccc45)[C@@](O)(C(=O)OC)C1)[C@@H]32	1.04 ± 0.081	0.962 ± 0.17
CCOc1nc2cccc(C(=O)OC(C)OC(=O)OC3CCCCC3)c2n1Cc1ccc(-c2ccccc2-c2nn[nH]n2)cc1 (centres undefined)	0.988 ± 0.048	0.592 ± 0.089
Nc1ccc(S(N)(=O)=O)cc1	0.9673 ± 0.006	1.07 ± 0.1
